Data reported in PMC4542307.
Results are given in words; binding and its absence hold for the method and conditions named. In cells and extracts the contact can be indirect. Some binding calls cover weakened binding; strength is not graded here.

Chains of the proteins cited; added tags and fusions are not shown.
UniProt Q60610: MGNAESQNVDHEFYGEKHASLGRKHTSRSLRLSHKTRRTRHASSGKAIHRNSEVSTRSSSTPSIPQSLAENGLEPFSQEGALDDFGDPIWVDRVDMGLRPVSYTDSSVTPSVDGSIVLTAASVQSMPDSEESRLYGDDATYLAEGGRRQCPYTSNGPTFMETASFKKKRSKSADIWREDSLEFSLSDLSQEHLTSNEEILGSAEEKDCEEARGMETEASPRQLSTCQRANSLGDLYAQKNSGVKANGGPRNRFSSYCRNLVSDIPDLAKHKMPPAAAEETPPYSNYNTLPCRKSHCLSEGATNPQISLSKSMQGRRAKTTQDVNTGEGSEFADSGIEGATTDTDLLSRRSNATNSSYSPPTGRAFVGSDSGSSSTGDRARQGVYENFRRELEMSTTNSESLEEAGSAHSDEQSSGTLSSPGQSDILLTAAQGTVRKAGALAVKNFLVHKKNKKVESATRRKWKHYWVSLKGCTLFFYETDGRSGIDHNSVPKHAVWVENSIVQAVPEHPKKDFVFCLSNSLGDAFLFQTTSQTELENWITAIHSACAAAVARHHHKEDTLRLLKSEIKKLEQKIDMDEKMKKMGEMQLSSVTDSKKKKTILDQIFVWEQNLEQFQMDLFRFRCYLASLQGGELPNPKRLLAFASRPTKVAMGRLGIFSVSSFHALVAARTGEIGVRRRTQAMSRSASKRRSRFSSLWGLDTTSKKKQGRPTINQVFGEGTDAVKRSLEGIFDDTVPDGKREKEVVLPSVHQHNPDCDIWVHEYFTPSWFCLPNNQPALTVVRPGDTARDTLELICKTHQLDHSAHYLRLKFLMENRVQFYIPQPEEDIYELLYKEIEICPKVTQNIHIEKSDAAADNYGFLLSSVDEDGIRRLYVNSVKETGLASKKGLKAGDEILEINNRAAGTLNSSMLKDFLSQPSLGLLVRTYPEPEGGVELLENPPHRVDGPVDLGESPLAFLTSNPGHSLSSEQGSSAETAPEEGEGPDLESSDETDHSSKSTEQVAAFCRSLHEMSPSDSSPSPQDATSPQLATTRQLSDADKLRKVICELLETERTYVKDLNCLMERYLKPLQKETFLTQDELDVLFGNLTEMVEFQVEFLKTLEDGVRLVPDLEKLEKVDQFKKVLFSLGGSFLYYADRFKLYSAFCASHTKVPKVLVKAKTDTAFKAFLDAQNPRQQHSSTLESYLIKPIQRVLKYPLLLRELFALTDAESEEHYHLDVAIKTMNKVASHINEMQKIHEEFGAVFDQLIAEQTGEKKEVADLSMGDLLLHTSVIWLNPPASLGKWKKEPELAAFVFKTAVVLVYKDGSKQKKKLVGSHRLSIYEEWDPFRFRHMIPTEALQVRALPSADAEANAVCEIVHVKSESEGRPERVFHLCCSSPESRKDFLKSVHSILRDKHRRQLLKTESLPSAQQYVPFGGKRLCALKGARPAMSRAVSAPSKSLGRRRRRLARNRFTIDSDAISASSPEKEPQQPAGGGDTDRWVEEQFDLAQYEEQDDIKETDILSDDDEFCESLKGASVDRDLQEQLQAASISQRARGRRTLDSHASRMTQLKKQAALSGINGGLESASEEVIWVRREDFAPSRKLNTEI
UniProt Q7Z6Z7: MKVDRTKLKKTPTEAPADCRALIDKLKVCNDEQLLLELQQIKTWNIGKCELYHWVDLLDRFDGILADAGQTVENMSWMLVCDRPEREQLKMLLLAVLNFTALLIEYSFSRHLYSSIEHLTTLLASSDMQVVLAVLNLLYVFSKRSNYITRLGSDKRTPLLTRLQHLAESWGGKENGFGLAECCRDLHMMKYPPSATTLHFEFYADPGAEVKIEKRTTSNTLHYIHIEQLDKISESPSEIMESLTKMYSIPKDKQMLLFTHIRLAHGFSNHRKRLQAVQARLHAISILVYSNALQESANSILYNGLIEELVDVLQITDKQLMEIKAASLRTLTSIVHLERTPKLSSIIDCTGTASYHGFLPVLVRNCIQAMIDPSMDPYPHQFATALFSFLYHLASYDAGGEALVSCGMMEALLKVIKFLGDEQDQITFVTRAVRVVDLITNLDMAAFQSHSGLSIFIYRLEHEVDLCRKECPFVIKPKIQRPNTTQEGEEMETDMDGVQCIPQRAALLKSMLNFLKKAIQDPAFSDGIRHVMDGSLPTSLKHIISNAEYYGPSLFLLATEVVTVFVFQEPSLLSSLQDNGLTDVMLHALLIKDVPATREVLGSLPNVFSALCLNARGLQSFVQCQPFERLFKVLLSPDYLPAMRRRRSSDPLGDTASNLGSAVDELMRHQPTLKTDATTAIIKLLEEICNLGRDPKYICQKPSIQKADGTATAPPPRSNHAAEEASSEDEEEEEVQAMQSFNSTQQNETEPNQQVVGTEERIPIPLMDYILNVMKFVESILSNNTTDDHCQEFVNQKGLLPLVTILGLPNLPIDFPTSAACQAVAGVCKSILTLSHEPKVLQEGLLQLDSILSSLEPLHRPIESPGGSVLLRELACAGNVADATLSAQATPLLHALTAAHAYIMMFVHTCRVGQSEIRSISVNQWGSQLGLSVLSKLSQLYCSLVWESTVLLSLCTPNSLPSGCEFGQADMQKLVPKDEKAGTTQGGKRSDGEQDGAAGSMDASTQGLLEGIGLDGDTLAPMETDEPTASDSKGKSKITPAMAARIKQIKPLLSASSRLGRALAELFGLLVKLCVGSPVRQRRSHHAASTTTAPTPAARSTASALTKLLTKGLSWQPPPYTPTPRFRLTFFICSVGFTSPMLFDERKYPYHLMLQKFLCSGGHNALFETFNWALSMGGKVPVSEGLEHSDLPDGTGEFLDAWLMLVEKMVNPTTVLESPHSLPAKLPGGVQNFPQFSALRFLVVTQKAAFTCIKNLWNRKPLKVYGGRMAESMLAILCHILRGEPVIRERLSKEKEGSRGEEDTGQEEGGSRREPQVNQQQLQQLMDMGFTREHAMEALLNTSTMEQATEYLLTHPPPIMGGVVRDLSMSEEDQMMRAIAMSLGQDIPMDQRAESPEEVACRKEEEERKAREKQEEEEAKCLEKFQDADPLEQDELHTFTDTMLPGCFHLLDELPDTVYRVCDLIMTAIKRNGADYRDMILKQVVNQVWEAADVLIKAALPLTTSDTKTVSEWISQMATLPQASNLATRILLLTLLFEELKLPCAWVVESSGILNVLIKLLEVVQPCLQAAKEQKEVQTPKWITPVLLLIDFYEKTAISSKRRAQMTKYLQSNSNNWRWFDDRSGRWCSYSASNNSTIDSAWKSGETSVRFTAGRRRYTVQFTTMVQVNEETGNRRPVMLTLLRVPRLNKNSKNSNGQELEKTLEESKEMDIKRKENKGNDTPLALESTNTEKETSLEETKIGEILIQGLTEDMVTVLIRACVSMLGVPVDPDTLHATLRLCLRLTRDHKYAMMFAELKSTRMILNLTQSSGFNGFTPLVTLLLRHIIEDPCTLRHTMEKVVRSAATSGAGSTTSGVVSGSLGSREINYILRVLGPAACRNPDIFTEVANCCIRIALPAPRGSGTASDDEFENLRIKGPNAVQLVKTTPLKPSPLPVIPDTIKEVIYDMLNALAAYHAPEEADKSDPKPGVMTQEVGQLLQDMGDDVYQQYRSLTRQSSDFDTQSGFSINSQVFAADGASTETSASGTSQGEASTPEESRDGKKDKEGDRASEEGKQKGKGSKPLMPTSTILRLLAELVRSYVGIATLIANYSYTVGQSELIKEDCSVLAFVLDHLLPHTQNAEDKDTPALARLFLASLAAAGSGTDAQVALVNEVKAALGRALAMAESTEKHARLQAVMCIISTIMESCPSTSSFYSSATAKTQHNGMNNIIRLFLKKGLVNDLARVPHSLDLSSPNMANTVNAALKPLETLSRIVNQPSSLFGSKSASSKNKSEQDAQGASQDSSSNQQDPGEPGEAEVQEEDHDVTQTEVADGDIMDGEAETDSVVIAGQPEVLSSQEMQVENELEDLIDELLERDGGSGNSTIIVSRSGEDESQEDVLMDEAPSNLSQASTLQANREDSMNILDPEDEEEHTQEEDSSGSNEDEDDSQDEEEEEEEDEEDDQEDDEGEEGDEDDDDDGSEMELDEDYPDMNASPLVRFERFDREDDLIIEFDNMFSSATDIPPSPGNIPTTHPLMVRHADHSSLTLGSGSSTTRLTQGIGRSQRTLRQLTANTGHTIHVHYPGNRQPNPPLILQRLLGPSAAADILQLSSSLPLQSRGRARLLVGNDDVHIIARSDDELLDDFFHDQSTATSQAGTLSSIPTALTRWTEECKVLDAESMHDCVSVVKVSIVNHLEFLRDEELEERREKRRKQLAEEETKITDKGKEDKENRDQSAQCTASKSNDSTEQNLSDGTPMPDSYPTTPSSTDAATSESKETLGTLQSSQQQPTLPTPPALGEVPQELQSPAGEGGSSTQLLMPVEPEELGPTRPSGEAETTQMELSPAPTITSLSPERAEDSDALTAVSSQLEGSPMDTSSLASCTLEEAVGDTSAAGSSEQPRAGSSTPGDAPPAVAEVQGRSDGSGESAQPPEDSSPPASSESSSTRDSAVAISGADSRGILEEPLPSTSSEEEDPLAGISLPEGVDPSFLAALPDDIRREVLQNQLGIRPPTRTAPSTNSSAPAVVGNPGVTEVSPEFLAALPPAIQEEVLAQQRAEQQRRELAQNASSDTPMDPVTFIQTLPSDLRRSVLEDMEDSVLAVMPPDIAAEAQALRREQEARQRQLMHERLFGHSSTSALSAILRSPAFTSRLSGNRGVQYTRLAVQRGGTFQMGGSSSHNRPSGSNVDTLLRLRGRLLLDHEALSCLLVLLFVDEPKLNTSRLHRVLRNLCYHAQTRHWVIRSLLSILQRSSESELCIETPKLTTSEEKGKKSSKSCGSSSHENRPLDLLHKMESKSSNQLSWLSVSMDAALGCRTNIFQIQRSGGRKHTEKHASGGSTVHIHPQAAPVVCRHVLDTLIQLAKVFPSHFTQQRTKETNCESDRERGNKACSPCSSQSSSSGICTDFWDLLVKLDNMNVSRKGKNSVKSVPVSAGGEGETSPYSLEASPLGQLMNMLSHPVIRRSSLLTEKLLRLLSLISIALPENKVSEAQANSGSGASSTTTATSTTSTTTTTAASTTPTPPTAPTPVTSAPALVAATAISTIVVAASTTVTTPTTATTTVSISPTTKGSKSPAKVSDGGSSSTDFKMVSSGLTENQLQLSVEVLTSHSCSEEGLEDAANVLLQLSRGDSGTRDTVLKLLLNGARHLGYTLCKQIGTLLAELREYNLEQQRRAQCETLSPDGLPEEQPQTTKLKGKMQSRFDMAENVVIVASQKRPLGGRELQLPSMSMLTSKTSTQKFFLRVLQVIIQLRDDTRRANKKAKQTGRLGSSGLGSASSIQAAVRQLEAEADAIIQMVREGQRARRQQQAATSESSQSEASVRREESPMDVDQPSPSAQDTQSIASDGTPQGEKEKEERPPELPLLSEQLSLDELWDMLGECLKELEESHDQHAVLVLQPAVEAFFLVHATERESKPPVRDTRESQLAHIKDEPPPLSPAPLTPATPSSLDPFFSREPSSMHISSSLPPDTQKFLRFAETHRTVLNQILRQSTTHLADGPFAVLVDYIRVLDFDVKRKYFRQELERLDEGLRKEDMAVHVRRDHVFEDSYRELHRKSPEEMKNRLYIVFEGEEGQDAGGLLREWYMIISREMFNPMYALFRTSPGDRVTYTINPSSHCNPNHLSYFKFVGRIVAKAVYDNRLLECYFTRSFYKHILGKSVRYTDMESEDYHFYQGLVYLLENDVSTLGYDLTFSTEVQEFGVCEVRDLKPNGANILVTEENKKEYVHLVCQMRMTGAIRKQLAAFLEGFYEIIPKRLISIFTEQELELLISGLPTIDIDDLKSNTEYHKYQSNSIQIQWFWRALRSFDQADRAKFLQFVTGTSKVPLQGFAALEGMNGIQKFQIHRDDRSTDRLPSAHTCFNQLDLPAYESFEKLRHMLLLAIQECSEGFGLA

Molecular target: exogenous TIAM1 in HEK293T cells (UniProt Q60610)
Experiment: co-IP; exogenous TIAM1 in HEK293T cells (Figure S3A)

binding: binds
Substance: HUWE1 in HEK293T cells (from UniProt Q7Z6Z7 1-4374) (enzyme)
